Laboratory results taken from US20250361321A1 (Memorial Sloan Kettering, published 2025).
Results are given in words; binding and its absence hold for the method and conditions named. Some binding calls cover weakened binding; strength is not graded here.

Biological target: human MUC16 as expressed on MUC16+ cancer cell lines (OVCAR3, SKOV8, OVCA432) (human)
Test: FACS on MUC16+ OVCAR3 cells (FIG. 6 legend)

B1: anti-MUC16 clone 8 BsAb (Clone 8/anti-CD3 bispecific antibody) (bispecific antibody)
chain: DIQLTQSPSAVSASVGDRVTITCRASQDVSKWLAWYQQKPGKAPRLLISAASGLQSWVPSRFSGSGSGTEFTLSISSLQPEDFATYYCQQANSFPWTFGQGTKVEIKRSRGGGGSGGGGSGGGGSLEMAQVQLQQWGAGLLKPSETLSLTCAVYGGSFSGYYWSWIRQPPGKGLEWIGEINHSGSTNYNPSLKSRVTISVDTSKNQFSLKLSSVTAADTAVYYCARQSYITDSWGQGTLVTVSSTSGGGGSDVQLVQSGAEVKKPGASVKVSCKASGYTFTRYTMHWVRQAPGQGLEWIGYINPSRGYTNYADSVKGRFTITTDKSTSTAYMELSSLRSEDTATYYCARYYDDHYCLDYWGQGTTVTVSSGEGTSTGSGGSGGSGGADDIVLTQSPATLSLSPGERATLSCRASQSVSYMNWYQQKPGKAPKRWIYDTSKVASGVPARFSGSGSGTDYSLTINSLEAEDAATYYCQQWSSNPLTFGGGTKVEIKHHHHHH
notes: It was secreted from CHO cells; also called clone 8 bispecific antibody; anti-MUC16 clone & BsAb
binding: binds
